Results from publication PMC12775124, “CUL4A-DDB1-DCAF10 is an N-recognin for N-terminally acetylated Src kinases” (Nature Communications, 2026).
Results are given in words; binding and its absence hold for the method and conditions named. In cells and extracts the contact can be indirect. Here binding means that the protein was enriched with, or labelled near, the bait; the list need not be complete.

Sequences of proteins named here, by UniProt entry; tags and fusion partners are left off. A change or cut given only in a name is not applied to a line headed by its entry.
UniProt Q5BJF2: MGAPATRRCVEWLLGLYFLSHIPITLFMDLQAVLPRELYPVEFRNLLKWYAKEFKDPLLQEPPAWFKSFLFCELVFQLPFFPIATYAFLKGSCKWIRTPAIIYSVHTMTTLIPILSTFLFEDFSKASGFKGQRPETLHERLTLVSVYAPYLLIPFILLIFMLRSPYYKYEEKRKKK
UniProt Q9C0D3: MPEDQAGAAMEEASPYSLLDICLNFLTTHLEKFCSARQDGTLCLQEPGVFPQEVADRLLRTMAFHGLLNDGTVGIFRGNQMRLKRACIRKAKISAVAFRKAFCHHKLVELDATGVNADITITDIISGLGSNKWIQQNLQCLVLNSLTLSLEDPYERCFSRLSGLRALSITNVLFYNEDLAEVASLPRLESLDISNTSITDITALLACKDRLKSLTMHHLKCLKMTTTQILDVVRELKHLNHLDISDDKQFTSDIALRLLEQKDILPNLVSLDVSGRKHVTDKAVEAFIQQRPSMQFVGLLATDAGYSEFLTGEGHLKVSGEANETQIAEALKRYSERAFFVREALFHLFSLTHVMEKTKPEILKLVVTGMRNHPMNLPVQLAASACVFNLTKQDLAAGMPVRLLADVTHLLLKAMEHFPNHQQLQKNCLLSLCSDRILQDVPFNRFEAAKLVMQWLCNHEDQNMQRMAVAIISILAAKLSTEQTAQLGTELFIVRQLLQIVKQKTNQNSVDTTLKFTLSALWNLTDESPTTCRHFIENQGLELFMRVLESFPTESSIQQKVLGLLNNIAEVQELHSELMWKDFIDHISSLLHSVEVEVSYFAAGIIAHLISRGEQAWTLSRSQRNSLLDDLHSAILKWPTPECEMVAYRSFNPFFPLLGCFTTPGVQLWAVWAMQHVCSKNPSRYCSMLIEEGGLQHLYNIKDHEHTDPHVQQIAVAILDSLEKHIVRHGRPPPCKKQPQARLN

Target: T1, Nt-free TMEM97 peptide (UniProt Q5BJF2)
T1 sequence (peptide, biotin at the C-terminus after the Lys3 spacer): GAPATRRCVEKKK
Experiment: affinity purification with mass spectrometry; biotinylated 10-mer Nt-peptides on magnetic streptavidin beads incubated with HeLa lysate; retained proteins digested on bead and quantified label-free by LC-MS (DIA); pairwise comparison of two peptides; n = 3; only the target purified

binding: binds
Substance: ZYG11B (from UniProt Q9C0D3 1-744)
